Measurements reported in PubChem BioAssay AID1224826 (NIAID, 2016).
This is one part, drawn at random, of about 17,000 reagents tested. About 1,110 of all reagents (6.6%) count as active. 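Active means lowered or raised reporter signal; replicate intensities are raw and not normalised per plate.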 Not all columns of the deposit are shown.

Aim: 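Genes that change LPS-induced Tnf promoter activity in mouse macrophages when knocked down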 (primary screen)
Cells: RAW264.7 G9 macrophages from mouse bearing reporters for p65 (GFP) and the Tnf promoter (mCherry)
Knock-down reagent: siRNA pool against mouse genes, 100 nM
Time to read-out: 16 h of LPS stimulation, after 2 days of siRNA transfection
Challenge: bacterial lipopolysaccharide (Salmonella minnesota R595), 10 ng/ml
Detection: 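Nuclear mCherry signal of the Tnf promoter reporter measured by imaging after background removal, scaled to each plate median and turned into robust z-scores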
Direction: Tnf reporter robust z-score: higher = stronger Tnf promoter reporter signal after LPS
Hit rule: 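Called active when robust z-score is at most -1.3, matching the median of the Tlr4 knock-down control, or over 3; control wells and wells with under 50 cells never active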
Meaning of the calls: active = Tnf reporter clearly lowered or raised; inactive = no clear change in Tnf reporter

gene | Tnf reporter robust z-score | fewer than 50 cells in well | Outcome
Prss48 | 0.45 | enough cells in well | inactive
Rtn2 | – | fewer than 50 cells per well; well left out of calls | inactive
Dapk2 | -0.33 | enough cells in well | inactive
Agpat1 | 0.61 | enough cells in well | inactive
Or8c10 | – | fewer than 50 cells per well; well left out of calls | inactive
Nenf | -0.2 | enough cells in well | inactive
Adgre1 | -0.47 | enough cells in well | inactive
Marveld3 | 2.04 | enough cells in well | inactive
Arhgef9 | -0.69 | enough cells in well | inactive
Pbk | 2.49 | enough cells in well | inactive
Uba5 | -0.95 | enough cells in well | inactive
Or10q1b | 2.18 | enough cells in well | inactive
Abcb10 | -0.99 | enough cells in well | inactive
Canx | -0.1 | enough cells in well | inactive
Med15 | 0.34 | enough cells in well | inactive
Arpc3 | 1.47 | enough cells in well | inactive
Brdt | -1.08 | enough cells in well | inactive
Hsd3b1 | -1.01 | enough cells in well | inactive
4921517D22Rik | – | fewer than 50 cells per well; well left out of calls | inactive
Txlng | – | fewer than 50 cells per well; well left out of calls | inactive
Gipc2 | 0.06 | enough cells in well | inactive
Htra2 | -1.37 | enough cells in well | active
Afap1l1 | -0.29 | enough cells in well | inactive
Ly6i | 0.14 | enough cells in well | inactive

Copied from the listing (2 entries):
gene | Tnf reporter robust z-score | fewer than 50 cells in well | Outcome
Med15 | 0.34 | enough cells in well | inactive
Arpc3 | 1.47 | enough cells in well | inactive
